PubChem BioAssay AID686943, Drosophila RNAi Screening Center – 2013
In all, the deposit lists about 23,000 reagents; shown is an unselected part of those that have a named target and a result. 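Extra replicates exist only for a retested subset of genes; insulin dose and duration not given; both raised and lowered dpERK matter.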 Names joined by + are all predicted targets of the reagent. Not stated in the record: the amount of reagent, the time to read-out.

Aim: 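Knockdowns that increase or decrease active ERK after insulin receptor stimulation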 (primary screen)
System: Drosophila S2R+ haemocyte-like cells expressing YFP-tagged ERK (Rolled)
Reagent: long dsRNA against Drosophila genes
Conditions: insulin stimulation versus unstimulated cells; dose and duration not given
Read-out: 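Antibody staining for doubly phosphorylated ERK divided by ERK-YFP signal, as plate z-scores, in insulin-treated and untreated cells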
Reading the numbers: replicate 1, z-score of dpERK with insulin and replicate 2, z-score of dpERK with insulin: higher = more active ERK per ERK-YFP after insulin; replicate 1, z-score of dpERK under basal conditions: higher = more basal active ERK per ERK-YFP; replicate 1, z-score of ERK-YFP with insulin: higher = more YFP-tagged ERK signal

target,amplicon,"replicate 1, z-score of dpERK with insulin","replicate 2, z-score of dpERK with insulin","replicate 1, z-score of dpERK under basal conditions","replicate 1, z-score of ERK-YFP with insulin"
amos (absent MD neurons and olfactory sensilla),DRSC03484,-0.05,-0.57,-0.09,0.05
CG32750,DRSC18848,-0.89,1.23,0.98,0.78
Meics (Meiotic central spindle),DRSC11413,-1.08,-1.33,-0.96,-0.08
Tes (Testin),DRSC06996,-0.67,0.53,0.56,0.38
Las (Lipoic acid synthase),DRSC11772,0.9,0.03,-0.23,-0.19
"SmydA-6 (SET and MYND domain containing, arthropod-specific, member 6)",DRSC07341,0.4,0.63,-0.05,0.28
Atg7 (Autophagy-related 7),DRSC05741,-1.34,-2.04,-3.35,-0.36
Atg7 (Autophagy-related 7),DRSC06937,-0.26,-0.53,-0.77,0.26
Muc55B (Mucin 55B),DRSC21440,-0.21,0.73,-0.05,0.32
CG6048,DRSC18398,-0.07,0.01,0.46,0.68
CG31635,DRSC02273,0.27,-0.04,0.77,-0.15
CG31635,DRSC02274,-3.39,-2.59,-1.22,2.54
CG42697,DRSC05740,0.5,0.3,-0.49,0.14
Cht9 (Chitinase 9),DRSC04079,0.49,0.62,0.71,0.24
Ctr9,DRSC08562,1.98,1.59,-0.76,-3.23
lobo (lost boys),DRSC14662,0.18,-0.2,-1.17,-0.19
lobo (lost boys),DRSC14663,-0.09,-0.18,-0.78,-0.37
CG17994,DRSC04877,-0.24,-0.23,0.01,1.22
Rcd1 (Reduction in Cnn dots 1),DRSC07116,-0.13,0.64,-0.16,2.88
ppk30 (pickpocket 30),DRSC15302,-0.01,0.07,-0.23,0.24
CG33474,DRSC05218,0.1,0.51,-0.15,-0.75
CG9427,DRSC16490,-0.16,0.23,-1.25,-1.17
CG31391,DRSC16047,-0.21,-1.44,0.26,-0.12
Lpt (Lost PHDs of trr),DRSC04291,1.06,-0.87,-0.12,-0.55
Lpt (Lost PHDs of trr),DRSC04515,0.16,0,-0.66,-0.47
GluRIIC (Glutamate receptor IIC),DRSC00642,0.63,0.91,-0.41,-0.56
CG14610 + asRNA:CR42738,DRSC12554,-0.45,0.21,-0.66,0.28
Cpr97Ea (Cuticular protein 97Ea),DRSC15974,0.18,1.88,0.09,0.08
Cep164 (centrosomal protein 164),DRSC20163,-0.42,-0.34,-0.1,1.11
CG7856,DRSC04896,1.01,0.24,0.13,-0.31
LSm3 (Like Sm 3),DRSC15920,0.93,-0.02,-0.28,-0.09
CG7841,DRSC10922,-1.72,-0.15,0,0.26
CG15308,DRSC17995,0.15,0.4,0.54,0.08
CG30270,DRSC22890,0.72,-3.98,1.48,-1.29
CG13126,DRSC02222,0.4,0.43,0.75,-0.07
CG12994,DRSC19192,-0.12,-0.46,0.31,0.41
CG12994,DRSC19514,-1.36,-2.6,-1.6,2.45
CG34302,DRSC12751,-0.37,-0.38,0.96,-0.13
Ssl1 (Suppressor of stem-loop mutation),DRSC11634,0.56,0.11,-0.58,0.76
Prm (Paramyosin),DRSC08941,0.15,-0.27,-0.13,0.66
Prm (Paramyosin),DRSC08942,0.3,0.5,-0.2,0.1
Prm (Paramyosin),DRSC11255,-0.06,0.74,-0.03,0.44
MED30 (Mediator complex subunit 30),DRSC08516,0.32,0.55,-0.66,0.41
y (yellow),DRSC18853,0.6,-0.46,-0.58,-0.99
CG4955,DRSC19927,0.14,1.36,-0.04,0.18
Scsalpha1 (Succinyl-coenzyme A synthetase alpha subunit 1),DRSC08698,0.26,-1.28,0.63,0.16
CCT8 (Chaperonin containing TCP1 subunit 8),DRSC07130,0.04,0.22,-0.6,0.14
sel (seele),DRSC06232,0.36,-0.08,0.6,-0.12
apolpp (apolipophorin),DRSC17216,0.2,4.58,-0.9,-0.29
CG8492,DRSC10984,1.58,0.25,-0.33,-1.98
CG8492,DRSC21804,0.57,-0.29,0.14,-0.63
Irk2 (Inwardly rectifying potassium channel 2),DRSC15569,0.07,-0.81,-0.05,0.23
mRRF1 (mitochondrial ribosome recycling factor 1),DRSC10421,0.38,-0.6,0.17,-0.32
CG12885,DRSC14572,-1.82,0.2,-0.22,1.62
PIG-X (Phosphatidylinositol glycan anchor biosynthesis class X),DRSC22721,0.05,0.02,0.33,-0.65
CG11089 + CG31381,DRSC13690,0.63,0.03,1,0.94
CG11089 + CG31381,DRSC14290,-0.2,0.67,0.07,-0.24
CG8728,DRSC07251,0.17,-0.36,0.62,0.63
ich (ichor),DRSC12715,-0.7,-0.37,-1.01,0.48
ich (ichor),DRSC14448,0.1,0.44,0.28,0.17
lncRNA:CR43242 (long non-coding RNA:CR43242),DRSC03827,0.27,0.02,-0.86,0.68
Sik2 (Salt-inducible kinase 2),DRSC18522,0.09,0.9,-0.48,-0.24
CG4982,DRSC10465,-1.68,-1.13,0.22,-0.55
CG18540,DRSC06767,-0.28,-1.15,-0.98,0.74
CG11523,DRSC11669,-0.05,0.82,-0.12,0.31
CG18178,DRSC10302,-0.08,0.08,0.14,-0.03
RabX1,DRSC04678,0.34,1.25,-0.46,-0.09
sktl (skittles),DRSC04715,-1.15,0.32,0.99,1.05
flap (flapper),DRSC03918,0.28,0.94,0.72,0.39
flap (flapper),DRSC04087,0.98,0.23,-0.46,-1.94
CG8006,DRSC10949,-0.43,-2.38,0.19,-0.27
Acbp6 (Acyl-CoA binding protein 6),DRSC10217,0.27,0.32,-1.2,-0.13
CG17167,DRSC20902,-0.14,0.01,0.82,0.43
CG17167,DRSC20903,-1.32,-0.61,1.86,-0.44
